Experiment in all cases: pull-down; 5 µg GST-cortactin protein bound to glutathione-agarose beads, incubated with lysates of 293T cells (transfected or not with SH3PXD2B); SH3PXD2B detected by western blotting; only the target purified
(A western blot detects proteins with antibodies after separation by electrophoresis.)

The chains behind the UniProt entries cited, without tags or fusion partners. Where a name states a change or a piece, a line headed by the entry shows the natural chain unless it says otherwise. A line that says so, or that is headed by a name, gives the form on record, which may keep a tag or linker. Residues count along the entry.
UniProt Q60598: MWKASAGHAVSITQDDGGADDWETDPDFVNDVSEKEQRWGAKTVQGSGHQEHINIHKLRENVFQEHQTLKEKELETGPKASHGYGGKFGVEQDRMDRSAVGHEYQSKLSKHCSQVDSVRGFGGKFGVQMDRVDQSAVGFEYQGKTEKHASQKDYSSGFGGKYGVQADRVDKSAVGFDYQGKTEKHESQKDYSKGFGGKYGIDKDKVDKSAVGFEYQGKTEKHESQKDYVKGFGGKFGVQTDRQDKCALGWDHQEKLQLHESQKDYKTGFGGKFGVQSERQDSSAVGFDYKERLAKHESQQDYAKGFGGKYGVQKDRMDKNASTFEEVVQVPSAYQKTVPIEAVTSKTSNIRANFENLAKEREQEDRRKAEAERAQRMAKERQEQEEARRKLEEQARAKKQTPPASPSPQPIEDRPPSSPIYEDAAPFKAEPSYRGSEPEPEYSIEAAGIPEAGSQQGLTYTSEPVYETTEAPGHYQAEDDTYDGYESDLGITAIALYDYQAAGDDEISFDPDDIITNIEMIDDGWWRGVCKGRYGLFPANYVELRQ
GST-cortactin C-terminal part (amino acids 336-542): residues 336-542 of Q60598
GST-cortactin[336–542(W525K)] (Q60598, form named): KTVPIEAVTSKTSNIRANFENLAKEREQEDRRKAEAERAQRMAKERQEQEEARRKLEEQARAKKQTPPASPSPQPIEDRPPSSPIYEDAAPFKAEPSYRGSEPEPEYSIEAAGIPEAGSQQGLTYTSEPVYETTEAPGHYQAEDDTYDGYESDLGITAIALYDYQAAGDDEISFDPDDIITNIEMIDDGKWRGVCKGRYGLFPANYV

Test [1] deals with GST-cortactin fusion protein (full-length mouse cortactin) (mouse) (UniProt Q60598).
In test [2] the target is GST-cortactin[336–542(W525K)] (mouse) (UniProt Q60598).
Test [3] deals with GST-cortactin C-terminal part (amino acids 336-542) (mouse) (UniProt Q60598).

No constants are given. Whether binding was seen depends on the method and setting. Binding seen in cells or lysates may run through a third protein. Some binding calls cover weakened binding; strength is not graded here. For some of these results: Tags and fused reporters may be left off the sequences shown.

B1: SH3PXD2B carrying a C-terminal V5 epitope tag (full-length human SH3PXD2B) (protein, UniProt A1X283 1-911)
chain: MPPRRSIVEVKVLDVQKRRVPNKHYVYIIRVTWSSGSTEAIYRRYSKFFDLQMQMLDKFPMEGGQKDPKQRIIPFLPGKILFRRSHIRDVAVKRLIPIDEYCKALIQLPPYISQCDEVLQFFETRPEDLNPPKEEHIGKKKSGGDQTSVDPMVLEQYVVVANYQKQESSEISLSVGQVVDIIEKNESGWWFVSTAEEQGWVPATCLEGQDGVQDEFSLQPEEEEKYTVIYPYTARDQDEMNLERGAVVEVIQKNLEGWWKIRYQGKEGWAPASYLKKNSGEPLPPKPGPGSPSHPGALDLDGVSRQQNAVGREKELLSSQRDGRFEGRPVPDGDAKQRSPKMRQRPPPRRDMTIPRGLNLPKPPIPPQVEEEYYTIAEFQTTIPDGISFQAGLKVEVIEKNLSGWWYIQIEDKEGWAPATFIDKYKKTSNASRPNFLAPLPHEVTQLRLGEAAALENNTGSEATGPSRPLPDAPHGVMDSGLPWSKDWKGSKDVLRKASSDMSASAGYEEISDPDMEEKPSLPPRKESIIKSEGELLERERERQRTEQLRGPTPKPPGVILPMMPAKHIPPARDSRRPEPKPDKSRLFQLKNDMGLECGHKVLAKEVKKPNLRPISKSKTDLPEEKPDATPQNPFLKSRPQVRPKPAPSPKTEPPQGEDQVDICNLRSKLRPAKSQDKSLLDGEGPQAVGGQDVAFSRSFLPGEGPGRAQDRTGKQDGLSPKEISCRAPPRPAKTTDPVSKSVPVPLQEAPQQRPVVPPRRPPPPKKTSSSSRPLPEVRGPQCEGHESRAAPTPGRALLVPPKAKPFLSNSLGGQDDTRGKGSLGPWGTGKIGENREKAAAASVPNADGLKDSLYVAVADFEGDKDTSSFQEGTVFEVREKNSSGWWFCQVLSGAPSWEGWIPSNYLRKKP
With B1, in test [1], the binding result is “binds”.

B2: SH3PXD2B (endogenous, 293T cells) (protein, UniProt A1X283 1-911)
chain: MPPRRSIVEVKVLDVQKRRVPNKHYVYIIRVTWSSGSTEAIYRRYSKFFDLQMQMLDKFPMEGGQKDPKQRIIPFLPGKILFRRSHIRDVAVKRLIPIDEYCKALIQLPPYISQCDEVLQFFETRPEDLNPPKEEHIGKKKSGGDQTSVDPMVLEQYVVVANYQKQESSEISLSVGQVVDIIEKNESGWWFVSTAEEQGWVPATCLEGQDGVQDEFSLQPEEEEKYTVIYPYTARDQDEMNLERGAVVEVIQKNLEGWWKIRYQGKEGWAPASYLKKNSGEPLPPKPGPGSPSHPGALDLDGVSRQQNAVGREKELLSSQRDGRFEGRPVPDGDAKQRSPKMRQRPPPRRDMTIPRGLNLPKPPIPPQVEEEYYTIAEFQTTIPDGISFQAGLKVEVIEKNLSGWWYIQIEDKEGWAPATFIDKYKKTSNASRPNFLAPLPHEVTQLRLGEAAALENNTGSEATGPSRPLPDAPHGVMDSGLPWSKDWKGSKDVLRKASSDMSASAGYEEISDPDMEEKPSLPPRKESIIKSEGELLERERERQRTEQLRGPTPKPPGVILPMMPAKHIPPARDSRRPEPKPDKSRLFQLKNDMGLECGHKVLAKEVKKPNLRPISKSKTDLPEEKPDATPQNPFLKSRPQVRPKPAPSPKTEPPQGEDQVDICNLRSKLRPAKSQDKSLLDGEGPQAVGGQDVAFSRSFLPGEGPGRAQDRTGKQDGLSPKEISCRAPPRPAKTTDPVSKSVPVPLQEAPQQRPVVPPRRPPPPKKTSSSSRPLPEVRGPQCEGHESRAAPTPGRALLVPPKAKPFLSNSLGGQDDTRGKGSLGPWGTGKIGENREKAAAASVPNADGLKDSLYVAVADFEGDKDTSSFQEGTVFEVREKNSSGWWFCQVLSGAPSWEGWIPSNYLRKKP
B2: the results for the binding result in test [2], in test [1] and in test [3] were “no binding”, “binds” and “binds”, respectively.

The record behind these values is publication PMC3160312.
